Assay [1] concerns the target T1, adaptor protein complex 3 subunit B1 (AP3B1), HA-tagged (human) (UniProt O00203).
T1 sequence: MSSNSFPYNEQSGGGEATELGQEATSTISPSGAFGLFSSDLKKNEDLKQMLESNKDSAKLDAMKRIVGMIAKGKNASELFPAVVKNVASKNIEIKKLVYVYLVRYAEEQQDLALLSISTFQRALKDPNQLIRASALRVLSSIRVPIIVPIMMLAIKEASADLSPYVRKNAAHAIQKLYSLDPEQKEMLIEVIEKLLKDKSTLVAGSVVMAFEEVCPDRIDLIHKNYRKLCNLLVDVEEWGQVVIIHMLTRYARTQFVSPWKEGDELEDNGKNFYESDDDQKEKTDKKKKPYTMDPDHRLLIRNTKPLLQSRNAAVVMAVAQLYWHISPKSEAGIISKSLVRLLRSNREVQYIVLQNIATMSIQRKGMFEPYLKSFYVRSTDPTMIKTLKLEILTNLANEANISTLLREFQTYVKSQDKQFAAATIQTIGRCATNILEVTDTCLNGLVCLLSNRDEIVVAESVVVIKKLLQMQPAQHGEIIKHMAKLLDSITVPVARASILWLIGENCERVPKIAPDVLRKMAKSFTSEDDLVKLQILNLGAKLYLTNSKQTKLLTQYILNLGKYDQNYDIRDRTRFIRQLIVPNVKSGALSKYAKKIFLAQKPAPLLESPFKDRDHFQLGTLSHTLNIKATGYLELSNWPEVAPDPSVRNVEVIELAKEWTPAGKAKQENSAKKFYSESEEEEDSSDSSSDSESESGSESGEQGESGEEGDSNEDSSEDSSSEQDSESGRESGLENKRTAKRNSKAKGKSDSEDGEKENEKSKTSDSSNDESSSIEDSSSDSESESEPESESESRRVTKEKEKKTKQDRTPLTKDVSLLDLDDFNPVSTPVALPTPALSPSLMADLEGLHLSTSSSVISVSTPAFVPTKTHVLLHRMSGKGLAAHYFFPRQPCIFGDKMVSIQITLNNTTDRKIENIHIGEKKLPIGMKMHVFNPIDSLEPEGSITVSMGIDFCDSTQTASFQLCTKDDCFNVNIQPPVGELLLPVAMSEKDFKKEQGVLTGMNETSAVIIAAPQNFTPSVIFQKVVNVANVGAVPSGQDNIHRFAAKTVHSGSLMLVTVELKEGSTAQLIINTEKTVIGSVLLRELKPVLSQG
The assay can be described thus: co-IP.

The chains behind the UniProt entries cited, without tags or fusion partners.
UniProt P0DTC4: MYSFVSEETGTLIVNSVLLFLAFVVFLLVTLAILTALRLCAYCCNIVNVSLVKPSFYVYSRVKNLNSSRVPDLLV

Assay [2] addresses SARS-CoV-2 envelope (E) protein, FLAG-tagged (SARS-CoV-2) (UniProt P0DTC4). The assay can be described thus: co-IP.

Results are given in words; binding and its absence hold for the method and conditions named. In cells and extracts the contact can be indirect. Some entries that bind do so weakly or less than the wild type. Tags and fused reporters may be left off the sequences shown.

Consider “SARS-CoV-2 envelope (E) protein, FLAG-tagged (from UniProt P0DTC4 1-75)”, for which, in assay [1], the binding entry is reported as “binds”.

B1: adaptor protein complex 3 subunit B1 (AP3B1), HA-tagged (protein, UniProt O00203 1-1094)
chain: T1 sequence
Regarding B1, in assay [2], the binding result is listed as “binds”.

For the origin of these results see PMC11437497.
